From publication PMC7279496
These are yes or no findings as the source states them, for the method shown. Some results given as binding are weak or reduced against the parent protein; the word gives no strength. Sequences can lack the tags named with a protein.

How the values were obtained:
[1] = biological target: T1, Aep1p fused with the DNA binding domain of GAL4 (pAS2ΔΔ-AEP1) (S. cerevisiae) (UniProt P32493); assay: two-hybrid; Y190 yeast strain, Gal4 AD fusion (pACT2) and Gal4 DNA-binding domain fusion (pAS2ΔΔ); HIS3 reporter, growth on SC-His medium with 2 mM 3-AT, ten-fold dilutions
T1 sequence: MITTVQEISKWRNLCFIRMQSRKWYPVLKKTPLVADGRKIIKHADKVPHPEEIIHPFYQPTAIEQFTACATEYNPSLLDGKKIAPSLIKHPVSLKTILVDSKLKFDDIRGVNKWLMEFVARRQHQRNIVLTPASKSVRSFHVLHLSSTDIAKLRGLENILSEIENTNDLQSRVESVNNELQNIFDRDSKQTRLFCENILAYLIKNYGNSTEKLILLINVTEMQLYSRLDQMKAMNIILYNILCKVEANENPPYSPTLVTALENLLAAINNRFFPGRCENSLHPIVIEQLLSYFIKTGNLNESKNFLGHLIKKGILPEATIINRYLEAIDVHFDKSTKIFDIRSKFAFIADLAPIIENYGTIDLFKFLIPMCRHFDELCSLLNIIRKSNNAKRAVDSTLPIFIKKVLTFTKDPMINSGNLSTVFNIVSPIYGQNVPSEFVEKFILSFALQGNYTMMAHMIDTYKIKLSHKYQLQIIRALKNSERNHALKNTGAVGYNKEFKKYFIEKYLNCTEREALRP

[2] = biological target: T2, Pet111p fused with the DNA binding domain of GAL4 (pAS2ΔΔ-PET111) (S. cerevisiae) (UniProt P08468); assay: as above
T2 sequence: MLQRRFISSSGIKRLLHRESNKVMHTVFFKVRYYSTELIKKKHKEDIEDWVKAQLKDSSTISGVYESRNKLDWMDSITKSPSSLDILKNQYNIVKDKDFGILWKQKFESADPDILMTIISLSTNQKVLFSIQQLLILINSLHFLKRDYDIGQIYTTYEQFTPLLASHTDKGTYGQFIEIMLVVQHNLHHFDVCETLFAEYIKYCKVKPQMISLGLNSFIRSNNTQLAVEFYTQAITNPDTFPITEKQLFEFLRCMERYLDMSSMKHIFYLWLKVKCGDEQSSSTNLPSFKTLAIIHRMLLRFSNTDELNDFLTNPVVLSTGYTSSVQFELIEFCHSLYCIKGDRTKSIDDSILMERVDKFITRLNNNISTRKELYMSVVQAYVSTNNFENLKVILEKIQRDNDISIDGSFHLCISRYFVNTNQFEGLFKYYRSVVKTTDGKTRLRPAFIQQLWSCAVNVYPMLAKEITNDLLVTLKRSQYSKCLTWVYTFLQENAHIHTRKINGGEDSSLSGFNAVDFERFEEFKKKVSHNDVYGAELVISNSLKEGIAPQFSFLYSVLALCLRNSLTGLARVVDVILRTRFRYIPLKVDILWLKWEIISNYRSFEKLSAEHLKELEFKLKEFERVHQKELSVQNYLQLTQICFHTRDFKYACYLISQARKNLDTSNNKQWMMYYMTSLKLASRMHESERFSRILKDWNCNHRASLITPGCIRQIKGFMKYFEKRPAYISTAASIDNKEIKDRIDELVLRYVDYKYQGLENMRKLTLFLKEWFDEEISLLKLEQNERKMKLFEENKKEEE

- binding [1]: no binding
- binding [2]: binds
B1: Aim23p fused with the activation domain of the GAL4 transcription factor (pACT2-AIM23) (protein, UniProt P47015 1-356)
chain: MLKVPLSDVLSQKMLFLKSFRYFHCTKYFSRDNASSTTDIFRNAMKRKRELANLKEQSHGNVARNAAFPKEYIKRPKQVPRNATNRKKILITWSTGTDRAKEAANSVVSEIFKKNHKGNIKVVDPTTHRIEASNIRYFAKGIDLDKVGLSIVNVEQIDNENQIPLVKIVESRVALKKYSDFLAKKKEKELMELGVLNKSYKNLVTDKKEDNLKHIKISWQIESDDLKRQKAHEIVSLLKKGNKVTLYLDDKNNINSNNWLENFEELDRSQKGEPPRLPESVFQKRAAVLETLKEIVSEYANDPVLLGNMNSKMIMKLIPKDVKPQNNDKRALKELRKKERQEKLQKRIQRKKMNEM
